The values that follow come from article PMC11394911.

B1: PPI1 (full length, BiFC fusion) (protein, UniProt O23144 1-612)
chain: MGVEVVNSGGFEVAPAPFEGKPEKNGKLDQGKGDDAPINFGSVGELPKNAEENNNKVVNSDAPKNAAEEWPVAKQIHSFYLVKYRSYADPKIKAKLDLADKELEKLNKARTGVLDKLRAKRAERSELFDLLDPLKSERKGFNTMFDEKRKEMEPLQQALGKLRSNDGGSARGPAICSSEEELNSMIYSYQYRIQHESIPLTEEKQILKEIRLLEGTRDKVIANAAMRAKIKESMGQKDDIQGQVKLMGAGLDGVKKERQAISARINELSEKLKATKDEITVLENELKTVSEKRDKAYSNIHDLRRQRDETNSEYYQNRTVLNKARDLAAQKNISELEALANAEVEKFISLWCSKKNFREDYEKRILQSLDSRQLSRDGRMRNPDEKPLIAPEAAPSKATPSETEVVPKAKAKPQPKEEPVSAPKPDATVAQNTEKAKDAVKVKNVADDDDDEVYGLGKPQKEEKPVDAATAKEMRKQEEIAKAKQAMERKKKLAEKAAAKAAIRAQKEAEKKEKKEQEKKAKKKTGGNTETETEEVPEASEEEIEAPVQEEKPQKEKVFKEKPIRNRTRGRGPETIPRAILKRKKSTNYWVYAAPAALVVLLLLVLGYYYVL
B2: PPI2 (BiFC fusion) (protein, UniProt B3H4K7 1-589)
chain: MGAQIILSEGFEVVPPPEMNDLVLFGSNQSVSSCDVSTVTTEDGTVFSGDSSPGGATEEDFPEEKPFSFYFVKQPAYDDPEIKAKIDEAGHEINRYNKDRIVVSNAQESEKAEILSLFGQMKSLVSKSEGYRVVIEEKKMEFDALHESLRNLRCSTSDQLCFSKEELDHLIYIAHYQIEHGSIGFEEEDWVLKETEKADGIVLSEDSLAEKEASINRVKSMAVELNEVKKELDAITWKINHLSDKVGKSQNNLRVLDVKKAHILEERDRSYERIKMLRIQRDKGKAAFYQSLPVMRKARELAASGNVRDLEVFASSEADRFMTQWNDDKAFRDDYVKRISPSLCERQLNQDGRIKDPEVQVVWEKKVPVKGGEKVHETNREDSSSNSSQYGSVITDKRKKETRKKAMDFNRSSAEESDVTDLEFSVYEKPKKEEEEVDEETLKEREREEQLEKARLAMERKRKLQEKAAAKAAIRAQKEAEKKLKECEKKAKKKAAANSSSPSESDHSQEVTKDLEKVRTLAVSGKEKHQKERSLFPKQRSFRYKHRGRGTEALPKAILNRRKAHKYWVWGLSSAALAVALFLVVLLLR
B3: cEYFP-PPI1Δ1-358aa (domain or fragment, UniProt O23144 359-612)
chain: EDYEKRILQSLDSRQLSRDGRMRNPDEKPLIAPEAAPSKATPSETEVVPKAKAKPQPKEEPVSAPKPDATVAQNTEKAKDAVKVKNVADDDDDEVYGLGKPQKEEKPVDAATAKEMRKQEEIAKAKQAMERKKKLAEKAAAKAAIRAQKEAEKKEKKEQEKKAKKKTGGNTETETEEVPEASEEEIEAPVQEEKPQKEKVFKEKPIRNRTRGRGPETIPRAILKRKKSTNYWVYAAPAALVVLLLLVLGYYYVL
B4: NubG-PPI1 (full-length proton pump interactor 1) (protein, UniProt O23144 1-612)
chain: B1 chain
B5: NubG-PPI2 (protein, UniProt B3H4K7 1-589)
chain: B2 chain
B6: NubG-PPI1Δ1-358aa (domain or fragment, UniProt O23144 359-612)
chain: B3 chain

Results are given in words; binding and its absence hold for the method and conditions named. Binding can be weak; no strength is given. For part of these data: Binding seen in cells or lysates may run through a third protein. For part of these data: Sequences can lack the tags named with a protein.

One experiment deals with nEYFP-XopLXcc (Xanthomonas campestris pv. campestris 8004). In words: split reporter; BiFC with nEYFP and cEYFP fusions in transfected Arabidopsis protoplasts; YFP fluorescence detected after 8 h by confocal microscopy.
On to B1, for which the binding result was “binds”.

With B2, the binding result was “no binding”. Still for that read-out and setting: the entry for B3 is “binds”.

A further experiment concerns the target Cub-XopLXcc (Xanthomonas campestris pv. campestris 8004). Briefly: two-hybrid; split-ubiquitin yeast two-hybrid, point-to-point co-transformation of yeast NMY51; Cub fusions (pDHB1) as bait, NubG fusions (pPR3N) as prey; growth on selective medium (-TLHA) and lacZ (X-gal) activity, 30 °C.
As to B4, the binding entry was “binds”. Regarding B5, the binding entry was “no binding”. Same read-out and setting: the entry for B6 is “binds”.
